Here are results for one molecule from US9883691B2, “Food and beverage products containing 1,3-propanediol and methods of modifying flavor release using 1,3-propanediol” (Kraft Foods Group Brands LLC, priority 2012, dated 2018).

The nature of the data set: Triangle test for detection of 1,3-propanediol flavor (Example 6). The settings on record: for tasters identifying 1,3-propanediol in a triangle test: four tasters.

As for `OCCCO` [1,3-propanediol], the “tasters identifying 1,3-propanediol in a triangle test” value by setting is: (Samples A and B: water vs 0.14 grams 1,3-propanediol in 99.86 grams water) “Only one of the four tasters could identify”; (Samples C and D: 10 grams sucrose in water without/with 0.14 grams 1,3-propanediol) “only one taster identifying”. Further, the “detectability of flavor at low levels” value (water or sucrose sweetened beverages) is “generally not detectable at low levels”.
